Test results as given in PMC7547098.

Protein sequences, listed by entry. Tags and fused reporters are not part of them. Lines headed by an entry give the natural chain unless they say otherwise; changes in a name come on top.
UniProt P61957: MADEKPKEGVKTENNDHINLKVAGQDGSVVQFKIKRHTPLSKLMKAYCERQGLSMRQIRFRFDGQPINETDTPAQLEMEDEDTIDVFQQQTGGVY

Biological target: SUMO2, endogenous in mouse heart (mouse (endogenous in mouse heart)) (UniProt P61957)
Experiment: co-IP; endogenous proteins, 1 mg mouse heart protein in RIPA buffer, about 4 ug anti-SUMO2/3 antibody (mouse monoclonal, Abcam), Dynabeads, 4 °C, blot with anti-HectD3

binding: binds
B1: HectD3, endogenous in mouse heart (protein, UniProt Q3U487 1-861)
chain: MAGPGPGAALESPRQLLGRVRFLAEAARSLRAGLPLPAALAFVPREVLYKLYKDPAGPSRVLLPVWEAEGLGLRVGAVGAAPGTGSGPLRAARDSIELRRGACVRTTGEELCNGHGLWVKLTKEQLAEHLSDCSLDEGWLLVCRPAEGGARLVPIDTPDHLQRQQQLFGVDYRPVLRWEQVVDLTYSHRLGSRPQPAEAYTEAIQRLLYVPPTWTYECDEDLIHFLYDHLGKEDENLGSVKQYVESIDVSSYTEEFNVSCLTDSNADTYWESDGSQCQHWVRLTMKKGTIVKKLLLTVDTTDDNFMPKRVVVYGGEGDNLKKLSDVNIDETLIGDVCVLEDMTVHLPIIEIRIVECRDDGIDVRLRGVKIKSSRQRELGLNADLFQPASLVRYPRLEGTDPEVLYRRAVLLQRFIKILDSVLHHLVPAWDHTLGTFSEIKQVKQFLLLSRQRPSLVAQCLRDSESSKPSFMPRLYINRRLAMEHRACPSRDPACKNAVFTQVYEGLKPSDKYEKPLDYRWPMRYDQWWECKFIAEGIIDQGGGFRDSLADMSEELCPSSADTPVPLPFFVRTANQGNGTGEARDMYVPNPSCRDFAKYEWIGQLMGAALRGKEFLVLALPGFVWKQLSGEEVSWSKDFPAVDSVLVKLLEVMEGVDKETFEFKFGKELTFTTVLSDQQVVELIPGGTGIVVEYEDRSRFIQLVRKARLEESKEQVAAMQAGLLKVVPQAVLDLLTWQELEKKVCGDPEVTVDALRKLTRFEDFEPSDTRVQYFWEALNNFTNEDRSRFLRFVTGRSRLPARIYIYPDKLGYETTDALPESSTCSSTLFLPHYASAKVCEEKLRYAAYNCVAIDTDMSPWEE

These are yes or no findings as the source states them, for the method shown. Binding seen in cells or lysates may run through a third protein. Binding calls can cover weak binding; strength is not graded here.
